Drawing on paper PMC3342958, “IDN2 and Its Paralogs Form a Complex Required for RNA–Directed DNA Methylation”, this text covers binding for five molecules.

Assay [1] deals with T1, IDN2-6xMyc (Arabidopsis thaliana) (UniProt Q8VZ79).
T1 sequence: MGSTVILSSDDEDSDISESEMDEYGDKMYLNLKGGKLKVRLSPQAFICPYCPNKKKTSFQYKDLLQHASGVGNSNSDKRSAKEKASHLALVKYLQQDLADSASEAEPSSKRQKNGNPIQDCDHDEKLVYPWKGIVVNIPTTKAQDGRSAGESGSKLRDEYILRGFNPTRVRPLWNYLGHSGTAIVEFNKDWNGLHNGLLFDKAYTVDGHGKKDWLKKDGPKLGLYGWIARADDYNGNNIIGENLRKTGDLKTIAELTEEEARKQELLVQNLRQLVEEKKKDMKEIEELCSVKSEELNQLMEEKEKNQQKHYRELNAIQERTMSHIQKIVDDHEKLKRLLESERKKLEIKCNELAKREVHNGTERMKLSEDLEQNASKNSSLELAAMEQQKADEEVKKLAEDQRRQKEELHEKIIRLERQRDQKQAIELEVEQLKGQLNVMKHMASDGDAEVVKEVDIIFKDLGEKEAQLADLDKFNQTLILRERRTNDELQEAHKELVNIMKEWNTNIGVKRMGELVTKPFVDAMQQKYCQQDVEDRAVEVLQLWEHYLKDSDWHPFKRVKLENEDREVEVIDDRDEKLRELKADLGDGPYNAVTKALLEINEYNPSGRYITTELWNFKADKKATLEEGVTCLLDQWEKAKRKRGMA
Put plainly: affinity purification with mass spectrometry; extracts of IDN2-6xMyc (wild-type or mutated) transgenic plants on Anti-c-Myc Agarose, 4°C 2.5 h, lysis buffer 50 mM Tris pH 7.6, 150 mM NaCl, 5 mM MgCl2, 10% glycerol, 0.1% NP-40; eluted with 0.1 M ammonium hydroxide; SDS-PAGE, silver staining, total proteins or the ∼80-KDa band analysed by LTQ mass spectrometry.

For assay [2], the target named is T2, IDN2W616A-6xMyc (Arabidopsis thaliana) (UniProt Q8VZ79).
T2 sequence: T1 sequence with W616A
The assay is described as above.

Assay [3] has as its target T1, IDN2-6xMyc (Arabidopsis thaliana). Described as above. This is another data set of the same source.
The target in assay [4] is T3, IDP1-3xFlag (Arabidopsis thaliana) (UniProt Q9S9P3).
T3 sequence: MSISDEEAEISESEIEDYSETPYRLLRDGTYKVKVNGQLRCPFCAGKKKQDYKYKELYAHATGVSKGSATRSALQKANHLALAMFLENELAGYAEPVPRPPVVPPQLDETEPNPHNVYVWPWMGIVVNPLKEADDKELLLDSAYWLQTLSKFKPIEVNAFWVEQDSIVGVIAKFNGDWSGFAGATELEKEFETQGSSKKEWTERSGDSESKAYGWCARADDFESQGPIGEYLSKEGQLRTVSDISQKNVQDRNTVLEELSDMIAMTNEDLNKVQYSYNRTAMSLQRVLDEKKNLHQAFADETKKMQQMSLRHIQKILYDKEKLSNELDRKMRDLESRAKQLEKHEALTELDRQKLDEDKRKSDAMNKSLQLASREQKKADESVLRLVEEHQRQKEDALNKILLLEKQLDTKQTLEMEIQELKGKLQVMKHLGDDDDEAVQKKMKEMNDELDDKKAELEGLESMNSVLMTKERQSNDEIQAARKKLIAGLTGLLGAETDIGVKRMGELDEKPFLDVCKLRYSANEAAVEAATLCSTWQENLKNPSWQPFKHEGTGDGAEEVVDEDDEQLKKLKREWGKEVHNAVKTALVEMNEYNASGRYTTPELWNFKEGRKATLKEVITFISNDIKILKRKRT
As to the kind of experiment: affinity purification with mass spectrometry; extracts of IDP1-3xFlag transgenic plants (wild-type background) on Anti-Flag M1 Agarose, 4°C 2.5 h, eluted with 3xFlag peptide; total purified proteins analysed by mass spectrometry.

Where a chain is given by its changes, count along the chain named. Where two headings read alike, the source gives them in different places. These are yes or no findings as the source states them, for the method shown. Binding seen in cells or lysates may run through a third protein. These calls come from enrichment with a bait or labelling near it, and not all partners need be listed. For some assays here: No binding means not detected with the bait. Tags and fused reporters may be left off the sequences shown.

As for At4g01780, endogenous, the binding result in assay [1] is “no binding”.

B1: IDP1 (IDN2 PARALOG 1), endogenous (protein, UniProt Q9S9P3 1-634)
chain: T3 sequence
For B1, the binding entry in assay [2] and in assay [3] was “binds” in each case.

B2: At3g12550, endogenous (protein, UniProt Q9LHB1 1-638)
chain: MNNKLSDFEKNLYKKLKSGKLEVKVSYRTFLCPYCPDNKKKVGLYVDILQHASGVGNSQSKKRSLTEKASHRALAKYLIKDLAHYATSTISKRLKARTSFIPAETGDAPIIYDDAQFEKLVWPWKGVLVNIPTTSTEDGRSCTGESGPKLKDELIRRGFNPIRVRTVWDRFGHSGTGIVEFNRDWNGLQDALVFKKAYEGDGHGKKDWLCGATDSSLYAWLANADDYYRANILGENLRKMGDLKSIYRFAEEEARKDQKLLQRLNFMVENKQYRLKKLQIKYSQDSVKLKYETEEKEKILRAYSEDLTGRQQKSTDHFNRIFADHEKQKVQLESQIKELEIRKLELAKREAENETQRKIVAKELEQNAAINSYVQLSALEQQKTREKAQRLAVDHKMQKEKLHKRIAALERQLDQKQELELEVQQLKSQLSVMRLVELDSGSEIVNKVETFLRDLSETEGELAHLNQFNQDLVVQERKSNDELQEARRALISNLRDMGLHIGVKRMGELDTKPFMKAMRIKYCQEDLEDWAVEVIQLWEEYLKDPDWHPFKRIKLETAETIVEVIDEDDEKLRTLKNELGDDAYQAVANALLEINEYNPSGRYISSELWNFREDRKATLEEGVNSLLEQWNQAKHLKS
On to B2, for which the binding result in assay [3] was “no binding”.

B3: IDN2, endogenous (protein, UniProt Q8VZ79 1-647)
chain: T1 sequence
Consider B3, for which the binding result in assay [4] and in assay [3] was “binds” throughout.

B4: IDP2 (IDN2 PARALOG 2), endogenous (protein, UniProt F4JH53 1-635)
chain: MDISDEESEISESEIEEYSKTPYHLLRSETYYKVKVNGRLRCPFCVGKKKQDYKYKELHAHATGVSKGSATRSALQKSNHLALAKFLENDLAGYAEPLPRPPVVPPLLDETEPNPHNVYVWPWMGIVVNPLKETDDKELLLDSVYWLQTLSKFKPVEVNAFWVEQDSIVGVIAKFDSDWSGFAAATELEKEFETQGSCKKEWTERSGDSESKAYGWCARADDFQSQGPIGEYLSKEGTLRTVSDILQNNVQDRNTLLDVLSNMIDMTNEDLNKAQHSYNRTAMSLQRVLDEKKNLHQAFAEETKKMQQMSLRHIQRILYDKEKLRNELDRKMRDLESRAKQLEKHEALTELERQKLDEDKRKSDAMNKSLQLASREQKKADESVLRLVEEHQRQKEDALNKILLLEKQLDTKQTLEMEIQELKGKLQVMKHLGDDDDEAVQTKMKEMNDELDDKKAELEDLESMNSVLMTKERQSNDEIQAARQKMIAGLTGLLGAESDIGVKRMGELDEKPFLDVCKLRYSANEARVEAATLCSTWKENLKNPSWQPFKREGTGDGAEEVVDEDDEQLKKLKREWGKEVHNAVKAALVEMNEYNASGRYPTSELWNFKEGRKATLKEVITFISTDIKNLKRKRT
As to B4, the binding result in assay [2] and in assay [3] was “binds” in each case.
